{"sequences": {"note": "Protein sequences, listed by entry. Tags and fused reporters are not part of them. Lines headed by an entry give the natural chain unless they say otherwise; changes in a name come on top.", "UniProt Q9UHX1": "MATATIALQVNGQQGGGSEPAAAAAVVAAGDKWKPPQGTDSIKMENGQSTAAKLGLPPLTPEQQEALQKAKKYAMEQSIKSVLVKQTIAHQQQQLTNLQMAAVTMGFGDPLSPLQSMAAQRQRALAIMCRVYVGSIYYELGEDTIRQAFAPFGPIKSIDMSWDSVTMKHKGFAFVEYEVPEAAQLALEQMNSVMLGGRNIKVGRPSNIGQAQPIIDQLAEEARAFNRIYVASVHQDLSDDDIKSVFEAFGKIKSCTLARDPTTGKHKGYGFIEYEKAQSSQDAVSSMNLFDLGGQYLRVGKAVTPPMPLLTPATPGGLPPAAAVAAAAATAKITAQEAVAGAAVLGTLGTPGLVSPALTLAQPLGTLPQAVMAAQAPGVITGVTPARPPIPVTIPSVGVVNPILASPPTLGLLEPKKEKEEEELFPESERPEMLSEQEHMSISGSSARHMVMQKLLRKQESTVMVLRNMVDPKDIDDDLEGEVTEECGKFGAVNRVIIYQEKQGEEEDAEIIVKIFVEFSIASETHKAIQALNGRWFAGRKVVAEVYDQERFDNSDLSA"}, "source": "paper PMC1888729", "note": "Results are given in words; binding and its absence hold for the method and conditions named. Binding seen in cells or lysates may run through a third protein. These calls come from enrichment with a bait or labelling near it, and not all partners need be listed. Where a sequence is shown, tags or fusion partners need not be part of it."}
{"target": "FLAG-V5-tagged PUF60 (PUF60L) (human) (UniProt Q9UHX1)", "assay": "affinity purification with mass spectrometry; F-V5-PUF60L precipitated from HeLa S3 nuclear extract on ANTI-FLAG M2 Affinity Gel, 1 h at 4°C, IP buffer (20 mM Hepes pH 8, 150 mM KCl, 1.5 mM MgCl2); washes with 250 mM KCl, 0.05% Triton X-100, one with 200 ng/ml RNase A; digested on the beads, or eluted with FLAG peptide and gel bands excised; only proteins found in both experiments and absent from control HeLa extract are listed"}
{"binder": "SRrp86 (protein, UniProt Q8WXA9 1-508) MTSLMPGAGLLPIPTPNPLTTLGVSLSSLGAIPAAALDPNIATLGEIPQPPLMGNVDPSKIDEIRRTVYVGNLNSQTTTADQLLEFFKQVGEVKFVRMAGDETQPTRFAFVEFADQNSVPRALAFNGVMFGDRPLKINHSNNAIVKPPEMTPQAAAKELEEVMKRVREAQSFISAAIEPESGKSNERKGGRSRSHTRSKSRSSSKSHSRRKRSQSKHRSRSHNRSRSRQKDRRRSKSPHKKRSKSRERRKSRSRSHSRDKRKDTREKIKEKERVKEKDREKEREREKEREKEKERGKNKDRDKEREKDREKDKEKDREREREKEHEKDRDKEKEKEQDKEKEREKDRSKEIDEKRKKDKKSRTPPRSYNASRRSRSSSRERRRRRSRSSSRSPRTSKTIKRKSSRSPSPRSRNKKDKKREKERDHISERRERERSTSMRKSSNDRDGKEKLEKNSTSLKEKEHNKEPDSSVSKEVDDKDAPRTEENKIQHNGNCQLNEENLSTKTEAV", "binding": "binds"}
{"binder": "DDx46/prp5 (protein, UniProt Q7L014 1-1031) MGRESRHYRKRSASRGRSGSRSRSRSPSDKRSKRGDDRRSRSRDRDRRRERSRSRDKRRSRSRDRKRLRRSRSRERDRSRERRRSRSRDRRRSRSRSRGRRSRSSSPGNKSKKTENRSRSKEKTDGGESSKEKKKDKDDKEDEKEKDAGNFDQNKLEEEMRKRKERVEKWREEQRKKAMENIGELKKEIEEMKQGKKWSLEDDDDDEDDPAEAEKEGNEMEGEELDPLDAYMEEVKEEVKKFNMRSVKGGGGNEKKSGPTVTKVVTVVTTKKAVVDSDKKKGELMENDQDAMEYSSEEEEVDLQTALTGYQTKQRKLLEPVDHGKIEYEPFRKNFYVEVPELAKMSQEEVNVFRLEMEGITVKGKGCPKPIKSWVQCGISMKILNSLKKHGYEKPTPIQTQAIPAIMSGRDLIGIAKTGSGKTIAFLLPMFRHIMDQRSLEEGEGPIAVIMTPTRELALQITKECKKFSKTLGLRVVCVYGGTGISEQIAELKRGAEIIVCTPGRMIDMLAANSGRVTNLRRVTYVVLDEADRMFDMGFEPQVMRIVDNVRPDRQTVMFSATFPRAMEALARRILSKPIEVQVGGRSVVCSDVEQQVIVIEEEKKFLKLLELLGHYQESGSVIIFVDKQEHADGLLKDLMRASYPCMSLHGGIDQYDRDSIINDFKNGTCKLLVATSVAARGLDVKHLILVVNYSCPNHYEDYVHRAGRTGRAGNKGYAYTFITEDQARYAGDIIKALELSGTAVPPDLEKLWSDFKDQQKAEGKIIKKSSGFSGKGFKFDETEQALANERKKLQKAALGLQDSDDEDAAVDIDEQIESMFNSKKRVKDMAAPGTSSVPAPTAGNAEKLEIAKRLALRINAQKNLGIESQDVMQQATNAILRGGTILAPTVSAKTIAEQLAEKINAKLNYVPLEKQEEERQDGGQNESFKRYEEELEINDFPQTARWKVTSKEALQRISEYSEAAITIRGTYFPPGKEPKEGERKIYLAIESANELAVQKAKAEITRLIKEELIRLQNSYQPTNKGRYKVL", "binding": "binds"}
{"binder": "RNPS1 (protein, UniProt Q15287 1-305) MDLSGVKKKSLLGVKENNKKSSTRAPSPTKRKDRSDEKSKDRSKDKGATKESSEKDRGRDKTRKRRSASSGSSSTRSRSSSTSSSGSSTSTGSSSGSSSSSASSRSGSSSTSRSSSSSSSSGSPSPSRRRHDNRRRSRSKSKPPKRDEKERKRRSPSPKPTKVHIGRLTRNVTKDHIMEIFSTYGKIKMIDMPVERMHPHLSKGYAYVEFENPDEAEKALKHMDGGQIDGQEITATAVLAPWPRPPPRRFSPPRRMLPPPPMWRRSPPRMRRRSRSPRRRSPVRRRSRSPGRRRHRSRSSSNSSR", "binding": "binds"}
{"binder": "LUC7L2 (protein, UniProt Q9Y383 1-392) MSAQAQMRAMLDQLMGTSRDGDTTRQRIKFSDDRVCKSHLLNCCPHDVLSGTRMDLGECLKVHDLALRADYEIASKEQDFFFELDAMDHLQSFIADCDRRTEVAKKRLAETQEEISAEVAAKAERVHELNEEIGKLLAKVEQLGAEGNVEESQKVMDEVEKARAKKREAEEVYRNSMPASSFQQQKLRVCEVCSAYLGLHDNDRRLADHFGGKLHLGFIEIREKLEELKRVVAEKQEKRNQERLKRREEREREEREKLRRSRSHSKNPKRSRSREHRRHRSRSMSRERKRRTRSKSREKRHRHRSRSSSRSRSRSHQRSRHSSRDRSRERSKRRSSKERFRDQDLASCDRDRSSRDRSPRDRDRKDKKRSYESANGRSEDRRSSEEREAGEI", "binding": "binds"}
{"binder": "CROP(LUC7a) (protein, UniProt O95232 1-432) MISAAQLLDELMGRDRNLAPDEKRSNVRWDHESVCKYYLCGFCPAELFTNTRSDLGPCEKIHDENLRKQYEKSSRFMKVGYERDFLRYLQSLLAEVERRIRRGHARLALSQNQQSSGAAGPTGKNEEKIQVLTDKIDVLLQQIEELGSEGKVEEAQGMMKLVEQLKEERELLRSTTSTIESFAAQEKQMEVCEVCGAFLIVGDAQSRVDDHLMGKQHMGYAKIKATVEELKEKLRKRTEEPDRDERLKKEKQEREEREKEREREREERERKRRREEEEREKERARDRERRKRSRSRSRHSSRTSDRRCSRSRDHKRSRSRERRRSRSRDRRRSRSHDRSERKHRSRSRDRRRSKSRDRKSYKHRSKSRDREQDRKSKEKEKRGSDDKKSSVKSGSREKQSEDTNTESKESDTKNEVNGTSEDIKSEGDTQSN", "binding": "binds"}
{"binder": "NHN1 (protein, UniProt Q86VM9 1-953) MDVAESPERDPHSPEDEEQPQGLSDDDILRDSGSDQDLDGAGVRASDLEDEESAARGPSQEEEDNHSDEEDRASEPKSQDQDSEVNELSRGPTSSPCEEEGDEGEEDRTSDLRDEASSVTRELDEHELDYDEEVPEEPAPAVQEDEAEKAGAEDDEEKGEGTPREEGKAGVQSVGEKESLEAAKEKKKEDDDGEIDDGEIDDDDLEEGEVKDPSDRKVRPRPTCRFFMKGNCTWGMNCRFIHPGVNDKGNYSLITKADPFPPNGAPPLGPHPLMPANPWGGPVVDEILPPPPPEPPTESAWERGLRHAKEVLKKATIRKEQEPDFEEKRFTVTIGEDEREFDKENEVFRDWNSRIPRDVRDTVLEPYADPYYDYEIERFWRGGQYENFRVQYTETEPYHNYRERERERERENRQRERERERERDRERERRQRERERERERERDKERQRRKEEWERERAKRDEKDRQHRDRDREKEREKEKGKPKPRSPQPPSRQAEPPKKEAATTGPQVKRADEWKDPWRRSKSPKKKLGVSVSPSRARRRRKTSASSASASNSSRSSSRSSSYSGSGSSRSRSRSSSYSSYSSRSSRHSSFSGSRSRSRSFSSSPSPSPTPSPHRPSIRTKGEPAPPPGKAGEKSVKKPAPPPAPPQATKTTAPVPEPTKPGDPREARRKERPARTPPRRRTLSGSGSGSGSSYSGSSSRSRSLSVSSVSSVSSATSSSSSAHSVDSEDMYADLASPVSSASSRSPAPAQTRKEKGKSKKEDGVKEEKRKRDSSTQPPKSAKPPAGGKSSQQPSTPQQAPPGQPQQGTFVAHKEIKLTLLNKAADKGSRKRYEPSDKDRQSPPPAKRPNTSPDRGSRDRKSGGRLGSPKPERQRGQNSKAPAAPADRKRQLSPQSKSSSKVTSVPGKASDPGAASTKSGKASTLSRREELLKQLKAVEDAIARKRAKIPGKA", "binding": "binds"}
{"binder": "SRp55 (protein, UniProt Q13247 1-344) MPRVYIGRLSYNVREKDIQRFFSGYGRLLEVDLKNGYGFVEFEDSRDADDAVYELNGKELCGERVIVEHARGPRRDRDGYSYGSRSGGGGYSSRRTSGRDKYGPPVRTEYRLIVENLSSRCSWQDLKDFMRQAGEVTYADAHKERTNEGVIEFRSYSDMKRALDKLDGTEINGRNIRLIEDKPRTSHRRSYSGSRSRSRSRRRSRSRSRRSSRSRSRSISKSRSRSRSRSKGRSRSRSKGRKSRSKSKSKPKSDRGSHSHSRSRSKDEYEKSRSRSRSRSPKENGKGDIKSKSRSRSQSRSNSPLPVPPSKARSVSPPPKRATSRSRSRSRSKSRSRSRSSSRD", "binding": "binds"}
{"binder": "SRp40 (protein, UniProt Q13243 1-272) MSGCRVFIGRLNPAAREKDVERFFKGYGRIRDIDLKRGFGFVEFEDPRDADDAVYELDGKELCSERVTIEHARARSRGGRGRGRYSDRFSSRRPRNDRRNAPPVRTENRLIVENLSSRVSWQDLKDFMRQAGEVTFADAHRPKLNEGVVEFASYGDLKNAIEKLSGKEINGRKIKLIEGSKRHSRSRSRSRSRTRSSSRSRSRSRSRSRKSYSRSRSRSRSRSRSKSRSVSRSPVPEKSQKRGSSSRSKSPASVDRQRSRSRSRSRSVDSGN", "binding": "binds"}
